This is an account of results in publication PMC9881170.

Holding throughout (assay): sucrose gradient co-sedimentation, Cy3 fluorescence
For data set [1], the system named is 28S mitoribosomal small subunit + mtIF2 + mtIF3. The conditions noted are these: + fMet-tRNAfMet; 200 nM 55S or 28S, 240 nM mtIF2, 240 nM mtIF3, 240 nM fMet-tRNAfMet, 400 nM mRNA; 37 C 30 min (then ice 15 min for mRNA binding); filter wash with 20 mM Mg2+; native protein; label: 3' Cy3.
For data set [2], the system named is 55S mitoribosome (re-associated) + mtIF2 + mtIF3. The following applies: without fMet-tRNAfMet; 200 nM 55S or 28S, 240 nM mtIF2, 240 nM mtIF3, 240 nM fMet-tRNAfMet, 400 nM mRNA; 37 C 30 min (then ice 15 min for mRNA binding); filter wash with 20 mM Mg2+; native protein; label: 3' Cy3.
Data set [3] deals with 55S mitoribosome, Cy5-labeled + mtIF2 + mtIF3. The conditions noted are these: + fMet-tRNAfMet, also FCS and single-molecule Cy3/Cy5 coincidence 43 +/- 4%; 200 nM 55S or 28S, 240 nM mtIF2, 240 nM mtIF3, 240 nM fMet-tRNAfMet, 400 nM mRNA; 37 C 30 min (then ice 15 min for mRNA binding); filter wash with 20 mM Mg2+; native protein; label: 3' Cy3.

Construct, isoform or probe ends are uncertain for at least one entry. For part of these data: Negatives hold for the conditions tested.

As to “AUGGCACAUGCAGCGCAAGUAGGUCUACAA [MTCO2 mRNA first 30 nt]”, the figures for the binding result in data set [1], in data set [2] and in data set [3] were “no binding”, “no binding” and “binds”, respectively.
